Source: US20070149408A1, “METHOD FOR REDUCING NITROSAMINES IN TOBACCO” (UNIVERSITY OF KENTUCKY RESEARCH FOUNDATION, priority 2005, published 2007)

Tested on: whole tobacco leaf
Experiment: Total TSNA in cured tobacco, ferulic acid solution sprayed one day after harvesting (Example 1)
Details: 0.25% wt. by volume ferulic acid, no surfactant, 100 ml per stalk
Method: Two samples of whole tobacco leaves still on the stalk were cured in a bulk barn. One sample was treated with ferulic acid by spraying an aqueous solution comprising 0.25% wt. by volume of ferulic acid onto the harvested tobacco plant, one day after harvesting. The amount of solution applied to each stalk of leaves was 100 ml. The other sample was untreated tobacco of the same variety as the treated tobacco and harvested at the same time as the treated tobacco.
Both the treated and untreated samples were hung in the same bulk barn to cure. The curing process comprised two weeks of circulating air throughout the bulk barn followed by three weeks of wood fire curing.
After curing, whole tobacco leaves were randomly removed from the stalk and subject to testing to determine the content of nitrosamines. The nitrosamines that were measured were N-nitrosonornicotine (NNN), N-nitrosoanatabine (NAT), N-nitrosoanabasine (NAB), and 4-methyl-N-nitrosamine-1-(3-pyridyl)-1-butanone (NNK). The total content of NNN, NAT, NAB, and NNK make up the total N-nitrosamine (TSNA) content. The methodology employed was a chromatographic method described by Risner, Reece and Morgan, Recent Advances in Tobacco Science 27:47 (2001).

How did the “Total TSNA (dwb), Lug” value (lower leaves, untreated 2.43) turn out when `COc1cc(C=CC(=O)O)ccc1O` [ferulic acid, 4-hydroxy-3-methoxy cinnamic acid] was run?
The value was 1.84 ppm.

What about the “Total TSNA (dwb), Second” value (middle leaves, untreated 1.60) of the same compound?
Its value is 1.37 ppm.

What about the “Total TSNA (dwb), Leaf” value (top leaves, untreated 2.16) of the same compound?
Its value is 1.64 ppm.

What about the “Total TSNA (dwb), Avg.” value (untreated 2.14) of the same compound?
Its value is 1.59 ppm.
